Substitutions are numbered along the chain they refer to. Only a part is listed here, and it is no random draw. The calls were merged from several studies; some rest on single wells. This is one part of the list.
What was measured:
Conditions in all cases: stereoisomer not certain
O10A4 = system: T1, O10A4
T1 sequence (whole entry): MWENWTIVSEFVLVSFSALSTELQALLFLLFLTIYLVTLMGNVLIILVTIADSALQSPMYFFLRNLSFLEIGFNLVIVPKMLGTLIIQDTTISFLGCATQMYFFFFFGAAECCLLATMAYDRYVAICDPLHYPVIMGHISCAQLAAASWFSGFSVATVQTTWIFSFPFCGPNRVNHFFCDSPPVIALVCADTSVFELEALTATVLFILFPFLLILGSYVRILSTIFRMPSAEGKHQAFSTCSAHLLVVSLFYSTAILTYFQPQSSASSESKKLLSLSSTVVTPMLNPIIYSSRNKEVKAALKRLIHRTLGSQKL
Procedure, shortened: (§1)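 Each entry records the cell line, G-protein, co-transfected protein and tags used. Methods varied with the source, often transient luciferase assays in mammalian cell lines. A receptor–molecule pair is called responsive (active) if the original authors judged its signal statistically different from baseline and non-responsive (inactive) otherwise.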

Chains of the proteins cited; added tags and fusions are not shown. A line that says so, or that is headed by a name, gives the form on record, which may keep a tag or linker.
O10A6, as listed by the source: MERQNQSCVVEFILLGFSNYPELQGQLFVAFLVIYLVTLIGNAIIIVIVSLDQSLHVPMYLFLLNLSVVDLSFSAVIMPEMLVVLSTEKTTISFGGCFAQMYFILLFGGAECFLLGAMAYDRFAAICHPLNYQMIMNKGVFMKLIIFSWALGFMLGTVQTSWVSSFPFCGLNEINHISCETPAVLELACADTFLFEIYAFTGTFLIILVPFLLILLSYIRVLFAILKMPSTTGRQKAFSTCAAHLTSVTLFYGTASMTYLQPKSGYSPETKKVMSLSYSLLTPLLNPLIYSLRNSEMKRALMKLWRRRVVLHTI
O10C1, as listed by the source: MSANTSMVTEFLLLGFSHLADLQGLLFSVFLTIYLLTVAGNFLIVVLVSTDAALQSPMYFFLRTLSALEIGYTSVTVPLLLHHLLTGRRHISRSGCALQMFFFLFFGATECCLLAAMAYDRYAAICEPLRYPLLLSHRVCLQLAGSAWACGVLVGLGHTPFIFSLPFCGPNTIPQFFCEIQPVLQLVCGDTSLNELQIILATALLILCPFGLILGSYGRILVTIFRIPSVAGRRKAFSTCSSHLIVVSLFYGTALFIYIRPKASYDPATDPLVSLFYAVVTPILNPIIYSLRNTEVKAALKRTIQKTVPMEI

O10A5 = system: T2, O10A5
T2 sequence (whole entry): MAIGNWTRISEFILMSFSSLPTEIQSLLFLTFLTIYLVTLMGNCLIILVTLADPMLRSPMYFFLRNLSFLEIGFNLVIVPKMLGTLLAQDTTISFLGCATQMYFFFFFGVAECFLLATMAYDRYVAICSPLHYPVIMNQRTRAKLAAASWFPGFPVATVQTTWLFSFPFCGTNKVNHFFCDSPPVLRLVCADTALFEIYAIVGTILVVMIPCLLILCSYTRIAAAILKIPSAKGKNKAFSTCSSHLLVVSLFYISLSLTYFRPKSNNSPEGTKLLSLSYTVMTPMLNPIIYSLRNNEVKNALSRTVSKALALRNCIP
Procedure, shortened: as §1

O10AD = system: T3, O10AD
T3 sequence (whole entry): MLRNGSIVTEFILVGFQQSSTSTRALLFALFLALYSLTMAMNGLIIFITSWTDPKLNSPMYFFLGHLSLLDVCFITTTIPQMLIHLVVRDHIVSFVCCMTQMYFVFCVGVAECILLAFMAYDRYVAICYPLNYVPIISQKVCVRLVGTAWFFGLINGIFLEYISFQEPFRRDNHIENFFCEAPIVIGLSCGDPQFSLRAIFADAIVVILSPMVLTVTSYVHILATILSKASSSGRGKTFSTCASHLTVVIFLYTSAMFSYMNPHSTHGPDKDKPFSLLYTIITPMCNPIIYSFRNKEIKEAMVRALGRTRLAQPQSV
Procedure, shortened: as §1

O10C1 [1] = system: T4, O10C1
T4 sequence (whole entry): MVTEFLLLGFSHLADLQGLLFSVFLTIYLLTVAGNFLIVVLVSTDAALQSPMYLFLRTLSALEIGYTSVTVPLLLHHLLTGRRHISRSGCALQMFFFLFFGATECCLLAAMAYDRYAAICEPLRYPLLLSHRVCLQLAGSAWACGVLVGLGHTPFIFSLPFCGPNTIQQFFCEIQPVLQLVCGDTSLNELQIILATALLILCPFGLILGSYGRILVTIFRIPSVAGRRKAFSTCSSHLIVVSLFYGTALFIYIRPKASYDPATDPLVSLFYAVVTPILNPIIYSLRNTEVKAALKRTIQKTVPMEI
Procedure, shortened: as §1

O10D3 = system: T5, O10D3
T5 sequence (whole entry): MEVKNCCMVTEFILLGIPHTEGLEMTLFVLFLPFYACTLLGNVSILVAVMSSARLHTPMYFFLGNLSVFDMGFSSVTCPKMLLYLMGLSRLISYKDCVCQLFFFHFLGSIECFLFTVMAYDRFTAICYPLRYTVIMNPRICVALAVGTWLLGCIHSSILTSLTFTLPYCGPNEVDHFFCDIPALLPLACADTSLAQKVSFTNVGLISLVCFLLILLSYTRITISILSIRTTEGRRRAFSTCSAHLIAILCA
Procedure, shortened: as §1

O10A6 [2] = system: T6, O10A6
T6 sequence (whole entry): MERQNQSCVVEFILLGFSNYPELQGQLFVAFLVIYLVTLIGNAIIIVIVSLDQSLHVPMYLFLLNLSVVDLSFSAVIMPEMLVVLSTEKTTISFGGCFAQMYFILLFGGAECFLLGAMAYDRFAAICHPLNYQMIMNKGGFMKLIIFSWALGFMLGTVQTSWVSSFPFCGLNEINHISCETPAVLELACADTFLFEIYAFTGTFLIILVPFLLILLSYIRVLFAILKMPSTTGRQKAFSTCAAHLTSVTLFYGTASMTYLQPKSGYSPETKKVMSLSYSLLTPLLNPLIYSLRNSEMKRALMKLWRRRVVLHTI
Procedure, shortened: as §1

O10A6 [3] = system: T7, O10A6; remark: listed apart in the source
T7 sequence (whole entry): T6 sequence (whole entry) with A117V
Procedure, shortened: as §1

O10C1 [4] = system: O10C1; remark: listed apart in the source
Procedure, shortened: as §1

O10C1 [5] = system: O10C1; remark: listed apart in the source
Procedure, shortened: as §1

O10A6 [6] = system: O10A6; remark: listed apart in the source
Procedure, shortened: as §1

SMILES | odorant receptor agonist call (O10A4) | odorant receptor agonist call (O10A5) | odorant receptor agonist call (O10AD) | odorant receptor agonist call (O10C1 [1]) | odorant receptor agonist call (O10D3) | odorant receptor agonist call (O10A6 [2]) | odorant receptor agonist call (O10A6 [3]) | odorant receptor agonist call (O10C1 [4]) | odorant receptor agonist call (O10C1 [5]) | odorant receptor agonist call (O10A6 [6])
CC(C)=CCCC(C)=CC=O | inactive | inactive | inactive | inactive | inactive | – | – | – | – | –
COc1ccccc1O | inactive | inactive | inactive | inactive | inactive | – | – | – | – | –
CC(C)(C)c1ccc(CCC=O)cc1 | inactive | inactive | inactive | inactive | inactive | – | – | – | – | –
CC(=O)OCC=C(C)CCC=C(C)C | inactive | inactive | inactive | inactive | inactive | – | – | – | – | –
CC=Cc1ccc(O)c(OC)c1 | active | active | inactive | inactive | inactive | active | inactive | – | – | –
CC1CCC(C(C)C)C(O)C1 (stereo not given) | inactive | inactive | active | active | inactive | – | – | – | – | –
CC12C=CCC1C1CCC3=CC(=O)CCC3(C)C1CC2 (stereo not given) | inactive | inactive | inactive | inactive | inactive | active | inactive | – | – | –
COC(=O)c1ccccc1O | inactive | inactive | inactive | inactive | inactive | – | – | – | – | –
c1ccc(Oc2ccccc2)cc1 | inactive | inactive | inactive | inactive | inactive | – | – | – | – | –
CC(C)CC(=O)O | inactive | inactive | inactive | inactive | inactive | – | – | – | – | –
CC(C)C(=O)O | inactive | inactive | inactive | inactive | inactive | – | – | – | – | –
c1cnccn1 | inactive | inactive | inactive | inactive | inactive | – | – | – | – | –
CCCCCCOC(=O)CCC | inactive | inactive | inactive | inactive | inactive | – | – | – | – | –
C=CCSCC=C | inactive | inactive | inactive | inactive | inactive | – | – | – | – | –
CCC=CCCO | inactive | inactive | inactive | inactive | inactive | – | – | inactive | inactive | –
C=CC(C)(O)CCC=C(C)C (stereo not given) | inactive | inactive | inactive | inactive | inactive | – | – | – | – | –
CC(C)C=O | inactive | inactive | inactive | inactive | inactive | – | – | – | – | –
CCCC(=O)O | inactive | inactive | inactive | inactive | inactive | active | inactive | – | – | –
CC12C=CCC1C1CCC3CC(=O)CCC3(C)C1CC2 (stereo not given) | inactive | inactive | inactive | inactive | inactive | active | active | – | – | active
COc1cc(C=O)ccc1O | inactive | inactive | inactive | inactive | inactive | – | – | – | – | –
CCCCCCCCCC=O | inactive | inactive | inactive | inactive | inactive | – | – | – | – | –
CCCCCCCC=CC=O | inactive | inactive | inactive | inactive | inactive | – | – | – | – | –
CC(=O)OC(C)(C)C1CC=C(C)CC1 (stereo not given) | inactive | inactive | inactive | inactive | inactive | – | – | – | – | –
CCCCCCCC=O | inactive | inactive | inactive | inactive | inactive | – | – | – | – | –
CCCCCCCCCCC=O | inactive | inactive | inactive | inactive | inactive | – | – | – | – | –

Ordered by molar mass (falling): some entries from above
SMILES | odorant receptor agonist call (O10A4) | odorant receptor agonist call (O10A5) | odorant receptor agonist call (O10AD) | odorant receptor agonist call (O10C1 [1]) | odorant receptor agonist call (O10D3) | odorant receptor agonist call (O10A6 [2]) | odorant receptor agonist call (O10A6 [3]) | odorant receptor agonist call (O10C1 [4]) | odorant receptor agonist call (O10C1 [5]) | odorant receptor agonist call (O10A6 [6])
c1ccc(Oc2ccccc2)cc1 | inactive | inactive | inactive | inactive | inactive | – | – | – | – | –
CC(C)CC(=O)O | inactive | inactive | inactive | inactive | inactive | – | – | – | – | –
CCCC(=O)O | inactive | inactive | inactive | inactive | inactive | active | inactive | – | – | –

Going on with the list.

SMILES | odorant receptor agonist call (O10A4) | odorant receptor agonist call (O10A5) | odorant receptor agonist call (O10AD) | odorant receptor agonist call (O10C1 [1]) | odorant receptor agonist call (O10D3) | odorant receptor agonist call (O10A6 [2]) | odorant receptor agonist call (O10A6 [3]) | odorant receptor agonist call (O10C1 [4]) | odorant receptor agonist call (O10C1 [5]) | odorant receptor agonist call (O10A6 [6])
CC1=CCC(C(C)(C)O)CC1 (stereo not given) | inactive | inactive | inactive | inactive | inactive | – | – | – | – | –
C=C(C)C1CCC2=CC(=O)CC(C)C2(C)C1 (stereo not given) | – | – | – | inactive | – | active | inactive | inactive | inactive | –
CCCCCOC(C)=O | – | inactive | inactive | inactive | inactive | – | – | – | – | –
CCCCCCCCOC(C)=O | inactive | inactive | inactive | inactive | inactive | – | – | – | – | –
CCC1(O)C2(C)CCC(C2)C1(C)C (stereo not given) | inactive | inactive | inactive | inactive | inactive | – | – | – | – | –
CCCCCCCOC(C)=O | inactive | inactive | inactive | inactive | inactive | – | – | – | – | –
O=C1CCCCCCCCCCCCCCO1 | inactive | inactive | inactive | inactive | inactive | – | – | – | – | –
CCCCCC(C)=O | – | inactive | inactive | inactive | inactive | – | – | – | – | –
CCCCO | inactive | inactive | inactive | inactive | inactive | – | – | – | – | –
O=C1CCCCCCCCCCCC(=O)OCCO1 | inactive | inactive | inactive | inactive | inactive | – | – | – | – | –
CC1COCc2cc3c(cc21)C(C)(C)C(C)C3(C)C (stereo not given) | active | active | active | active | active | – | – | – | – | –
C=CCc1ccc(OC)c(OC)c1 | inactive | inactive | inactive | inactive | inactive | – | – | – | – | –
CC(=O)C(C)=O | inactive | inactive | inactive | inactive | inactive | – | – | – | – | –
O=CCc1ccccc1 | inactive | inactive | inactive | inactive | inactive | – | – | – | – | –
CC1=NC(C)SC1C (stereo not given) | – | inactive | inactive | inactive | inactive | – | – | – | – | –
CC(=O)OC1CC2CCC1(C)C2(C)C (stereo not given) | inactive | inactive | inactive | inactive | inactive | – | – | – | – | –
O=C1CCCCC1 | – | inactive | inactive | inactive | inactive | – | – | – | – | –
C=CCc1ccc(OC(C)=O)c(OC)c1 | inactive | inactive | inactive | inactive | inactive | – | – | – | – | –
CC12CCC(C1)C(C)(C)C2=O (stereo not given) | inactive | inactive | inactive | inactive | inactive | – | – | – | – | –
CC(=O)c1ccccc1 | – | inactive | inactive | inactive | inactive | – | – | – | – | –
CC12CCC(CC1)C(C)(C)O2 | inactive | inactive | inactive | inactive | inactive | – | – | – | – | –
CC(C)CCC(=O)O | inactive | inactive | inactive | inactive | inactive | – | – | – | – | –
COC(=O)c1ccccc1 | – | inactive | inactive | inactive | inactive | – | – | – | – | –
COc1cc(C)ccc1O | inactive | inactive | inactive | inactive | inactive | – | – | – | – | –
CCCCCC(=O)O | inactive | inactive | inactive | inactive | inactive | – | – | – | – | –

From the M2OR odorant receptor database
